Measured values reported in PubChem BioAssay AID1508615 (Milbrandt Lab, Department of Genetics, Washington …, 2020).
About 20 (1%) of roughly 1,600 compounds were called active.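 The calls were made as follows: active = ratio of uncleaved NAD to its breakdown product ADP-ribose above 4, meaning the enzyme was inhibited; inactive = the rest.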 This is one part of the list.

Protein sequences, listed by entry. Tags and fused reporters are not part of them. Lines headed by an entry give the natural chain unless they say otherwise; changes in a name come on top.
UniProt Q6SZW1: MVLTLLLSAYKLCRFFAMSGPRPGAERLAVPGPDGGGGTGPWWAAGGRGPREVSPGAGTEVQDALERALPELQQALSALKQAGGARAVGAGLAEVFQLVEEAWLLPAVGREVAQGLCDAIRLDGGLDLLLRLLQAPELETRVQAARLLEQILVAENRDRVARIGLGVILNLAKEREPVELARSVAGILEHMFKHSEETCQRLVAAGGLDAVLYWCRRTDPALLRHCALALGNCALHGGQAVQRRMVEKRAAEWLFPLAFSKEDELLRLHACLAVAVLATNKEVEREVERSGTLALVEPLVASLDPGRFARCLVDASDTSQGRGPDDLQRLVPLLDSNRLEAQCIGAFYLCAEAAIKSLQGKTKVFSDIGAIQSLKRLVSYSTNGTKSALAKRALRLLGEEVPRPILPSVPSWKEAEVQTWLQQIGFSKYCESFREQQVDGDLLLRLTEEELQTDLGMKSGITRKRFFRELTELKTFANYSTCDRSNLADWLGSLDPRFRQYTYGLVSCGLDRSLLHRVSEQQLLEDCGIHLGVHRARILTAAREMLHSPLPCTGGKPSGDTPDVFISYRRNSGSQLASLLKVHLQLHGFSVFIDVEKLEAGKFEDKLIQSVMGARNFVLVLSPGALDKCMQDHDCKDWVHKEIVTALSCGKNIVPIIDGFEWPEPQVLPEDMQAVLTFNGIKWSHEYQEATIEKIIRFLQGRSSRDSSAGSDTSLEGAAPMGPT

molecular target: NAD(+) hydrolase SARM1 (Homo sapiens) (UniProt Q6SZW1); assay: inhibition of SAM-TIR NAD hydrolysis to ADPR – cell lysate, HPLC readout, primary screen (AID 1508615); conditions: HEK293T SAM-TIR lysate, NAD/ADPR ratio by HPLC; at 5 µM; active compounds read high;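 also: substrate NAD at 5 µM with 60 min at 37 °C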

NAD/ADPR ratio, inactive:
CN(C)C(=O)c1cccc(COc2ccc(N3C(N)=NC(N)=NC3(C)C)cc2Cl)c1 3
O=C(Nc1ccccc1)Nc1ccccn1 3
COC(=O)C1CC(O)C(O)C(O)C1 (stereo unspecified) 3
c1ccc2cc(OCCOCCOc3ccc4ccccc4c3)ccc2c1 3
Cc1cc(=O)c2c(=O)[nH][nH]c2[nH]1 3
Nc1ccccc1-c1nc2ccncc2[nH]1 3
CCOC(=O)c1c(O)cc(C)[nH]c1=O 3
c1ccc(-c2cn3ccccc3n2)cc1 3
Oc1ccc(-c2nc3ccccc3s2)c(O)c1 3
CC(=O)Nc1ccc(S(=O)(=O)N/N=c2/sc3ccccc3n2C)cc1N 3
O=C(Nc1ccccc1)Oc1ccc[nH]c1=O 3
CC(=O)CC[N+](C)(C)C 3
O=C(O)c1ccc(N2CCCCC2)cc1O 3
CC1=CC(C)(C(Cl)(Cl)Cl)C(C)=C/C1=N/O (stereo unspecified) 3
CC(=O)NCCCOc1ccc([N+](=O)[O-])cc1Cl 3
C(COC1CC2CC1C1C2CC2OC21)OC1CC2CC1C1C2CC2OC21 (stereo unspecified) 3
[O-][n+]1nc2ccccc2c2ccccc21 3
C=CCOc1ccc(S(C)(=O)=O)cc1 3
OCc1nc2nc(Cl)c(Cl)nc2[nH]1 3
CCC1(CC)C(=O)NC(=S)N=C1N 3
Cc1nc2ccccc2nc1NS(=O)(=O)c1ccc(N)cc1 3
O=C(Nc1cccc([N+](=O)[O-])c1)c1cccc(C(=O)Nc2cccc([N+](=O)[O-])c2)c1 3
Cc1ccc(N=Nc2ccc(N)cc2C)c(S(N)(=O)=O)c1 3
Cn1ncc2c(Nc3ccccc3Cl)nc(Cl)nc21 3
O=C(Nc1cccc2ccccc12)c1cc2c(cc1Br)OCO2 3
NC(=O)SCC(=O)Nc1ccccc1C(=O)O 3
CN(C)C(=S)/N=c1\ssc(=S)n1Cc1ccco1 3
CCN(CC)C(=O)Cn1ccc(NC(C)=O)nc1=O 3
OCC1CCCC(n2cnc3c(=S)nc[nH]c32)O1 (stereo unspecified) 3
CC1=CC(C)(C)Nc2ccc(Cc3ccc4c(c3)C(C)=CC(C)(C)N4)cc21 3
Cn1c([N+](=O)[O-])cnc1N1CCN(c2nncs2)C1=O 3
O=Cc1ccc(O)c2ncccc12 3
COc1ccc2c(c1)CCCN2C(N)=Nc1ccc(Cl)cc1 3
CN(C)CCCn1c2c3ccccc3ccc2c2oc(=O)c3ccccc3c21 3
Cc1cccnc1NC(=S)Nc1ncccc1C 3
CCCNC(=O)c1ccc(Cl)cc1Cl 3
OCCN1CCSC1=S 3
Cc1cc(N2CCN(C)CC2)n2nc(-c3ccc(Cl)cc3)nc2n1 3
Cn1c(=O)c2[nH]c(N3CCCCC3)nc2n(C)c1=O 3
O=C(O)C1OCC2(CO1)COC(C(=O)O)OC2 (stereo unspecified) 3
O=C(O)c1ccccc1C(=O)Nc1ccccc1[N+](=O)[O-] 3
CC(C)COc1nc2c(c(=O)n(C)c(=O)n2C)n1C 3
COc1ccc(N/C=C2\C(=O)CCc3c2oc2cc(Cl)c(O)c(Cl)c32)cc1 3
COc1cc(N=Nc2ccccc2C(=O)O)ccc1O 3
O=C(CC1(O)CCCCC1)OC1CCCC1 3
NC(=O)CCC(C(=O)O)N1C(=O)C2C3CCC(C3)C2C1=O (stereo unspecified) 3
CCOC(=O)c1cc[nH]c1CC(=O)NC 3
N#Cc1nnn(-c2ccc(Cl)cc2)c1N 3
S=C(Nc1ccccc1)c1ccccn1 3
Nc1ccc2c(c1)nnn2-c1ccccc1 3
NC(=Nc1ccc(N)cc1)C(N)=Nc1ccc(N)cc1 3
C=C1CC2(OC1=O)c1ccccc1CCc1ccccc12 3
Cc1ccc(S(=O)(=O)N(C)C)cc1[N+](=O)[O-] 3
Clc1ccc2nc3ccccc3cc2c1 3
CSc1ccc(NC(=O)Nc2ccccc2C(N)=O)cc1 3
c1ccc2[nH]c(CCCCCc3nc4ccccc4[nH]3)nc2c1 3
C(=N\Nc1nnn(Cc2ccccc2)n1)/c1ccccc1 3
CCCCOc1ccc(N=Nc2ccc(N)nc2N)cn1 3
O=C1c2cc([N+](=O)[O-])ccc2-c2cc(Br)c(N=C(NO)C(F)(F)F)cc21 3
Nc1nc(N)nc(-c2ccccc2-c2nc(N)nc(N)n2)n1 3
O=C1Nc2ccccc2C1(c1ccc(O)cc1)c1ccc(O)cc1 3.4

Copied from the listing, two compounds:
NAD/ADPR ratio, inactive:
Cc1cccnc1NC(=S)Nc1ncccc1C 3
CCCNC(=O)c1ccc(Cl)cc1Cl 3
